Measurements reported in US20140141994A1.
Where a chain is given by its changes, count along the chain named. These are yes or no findings as the source states them, for the method shown. Some binding calls cover weakened binding; strength is not graded here.

Chains of the proteins cited; added tags and fusions are not shown. Residues count along the entry.
UniProt O14763, residues 54-182: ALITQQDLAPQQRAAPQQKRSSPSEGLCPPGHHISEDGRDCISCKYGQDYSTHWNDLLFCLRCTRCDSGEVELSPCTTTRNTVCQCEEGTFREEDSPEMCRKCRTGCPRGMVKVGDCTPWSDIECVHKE

B1: 2F4 (designed binder)
chain: IEVKDVTDTTALITWSPCIMVCLRTGCELTYGIKDVPGDRTTIDLTEDENQYSIGNLKPDTEYEVSLICRRGDMSGAPAKETFTT
B2: 8B3 (designed binder)
chain: IEVKDVTDTTALITWSPPEYAFYYTGCELTYGIKDVPGDRTTIDLTEDENQYSIGNLKPDTEYEVSLICVKNCGLFSNPAKETFTT
B3: 2H6 (designed binder)
chain: IEVKDVTDTTALITWATPSVFDSHIEGCELTYGIKDVPGDRTTIDLTEDENQYSIGNLKPDTEYEVSLICWKHHGDAWSKETFTT
B4: 6C7 (designed binder)
chain: IEVKDVTDTTALITWAKPMSCSGYIQGCELTYGIKDVPGDRTTIDLTEDENQYSIGNLKPDTEYEVSLICAKLTGWLCSKETFTT
B5: 7G11 (designed binder)
chain: IEVKDVTDTTALITWAKPSIVNGFISGCELTYGIKDVPGDRTTIDLTEDENQYSIGNLKPDTEYEVSLICDKCFGAMKSKETFTT
B6: 5B10 (designed binder)
chain: B1 chain with I19L, M20F
B7: 10D9 (designed binder)
chain: IEVKDVTDTTALITWSPPLFCCQKTGCELTYGIKDVPGDRTTIDLTEDENQYSIGNLKPDTEYEVSLICFKLTGFLYSKETFTT
B8: 6F11 (designed binder)
chain: IEVKDVTDTTALITWSPSVARMLETGCELTYGIKDVPGDRTTIDLTEDENQYSIGNLKPDTEYEVSLICITLCGRGVSKETFTT
B9: 5E5 (designed binder)
chain: IEVKDVTDTTALITWSLAPGYRLGCELTYGIKDVPGDRTTIDLTEDENQYSIGNLKPDTEYEVSLICVKLCMRGNPAKETFTT
B10: 1E03 (designed binder)
chain: IEVKDVTDTTALITWAAPFFGSSYISGCELTYGIKDVPGDRTTIDLHYYVTRYSIGNLKPDTEYEVSLICVNLSGHMPSKETFTT
B11: 2B04 (designed binder)
chain: IEVKDVTDTTALITWAPPMLTDSEINGCELTYGIKDVPGDRTTIDLTSSYWSYSIGNLKPDTEYEVSLICSTLRRNAISKETFTT
B12: 1C12 (designed binder)
chain: IEVKDVTDTTALITWAKPEKWDGSIYGCELTYGIKDVPGDRTTIDLNSRHTAYSIGNLKPDTEYEVSLICFTPYGAKSNPAKETFTT
B13: 1A03 (designed binder)
chain: IEVKDVTDTTALITWAPPPFSNSCIIGCELTYGIKDVPGDRTTIDLRPGRASYSIGNLKPDTEYEVSLICSTGTGLPSNPAKETFTT
B14: 1C10 (designed binder)
chain: IEVKDVTDTTALITWSPCCPYDRYTGCELTYGIKDVPGDRTTIDLQSSRSHYSIGNLKPDTEYEVSLICITTFGHVSNPAKETFTT
B15: 1B12 (designed binder)
chain: IEVKDVTDTTALITWAKPRQGGSNISGCELTYGIKDVPGDRTTIDLYHKGLHYSIGNLKPDTEYEVSLICPKMTGYTYSKETFTT
B16: 2G03 (designed binder)
chain: IEVKDVTDTTALITWSPGPLLRHTTGCELTYGIKDVPGDRTTIDLRPIPRAYSIGNLKPDTEYEVSLICRNRPQQSNPAKETFTT
B17: 2D3 (designed binder)
chain: IEVKDVTDTTALITWSPGGFQKITTGCELTYGIKDVPGDRTTIDLVNRRNHYSIGNLKPDTEYEVSLICLTYKARAISKETFTT
B18: 1C06 (designed binder)
chain: IEVKDVTDTTALITWSPRMYTWIQTGCELTYGIKDVPGDRTTIDLTHLSGSYSIGNLKPDTEYEVSLICLKLTRTHISKETFTT
B19: 1B04 (designed binder)
chain: IEVKDVTDTTALITWSPSHGVESSTGCELTYGIKDVPGDRTTIDLHGLQRVYSIGNLKPDTEYEVSLICAKICGHLVSKETFTT
B20: 3B11 (designed binder)
chain: IEVKDVTDTTALITWSPCQLLALITGCELTYGIKDVPGDRTTIDLNSRHYHYSIGNLKPDTEYEVSLICYTSTGQRSNPAKETFTT
B21: 1D8 (designed binder)
chain: IEVKDVTDTTALITWSPCQMLSSLTGCELTYGIKDVPGDRTTIDLNIERPKYSIGNLKPDTEYEVSLICFTMTGYRSNPAKETFTT
B22: 2A12 (designed binder)
chain: IEVKDVTDTTALITWSPCCQEFTLTGCELTYGIKDVPGDRTTIDLHNHHHHYSIGNLKPDTEYEVSLICITDAGNKSNPAKETFTT
B23: 1E05 (designed binder)
chain: IEVKDVTDTTALITWSPCSPCQLVTGCELTYGIKDVPGDRTTIDLSCTRAKYSIGNLKPDTEYEVSLICINKLGDTSNPAKETFTT
B24: 2F08 (designed binder)
chain: IEVKDVTDTTALITWSHAGGIRIGCELTYGIKDVPGDRTTIDLHVWQVYYSIGNLKPDTEYEVSLICMTPYLLGNPAKETFTT
B25: 2F02 (designed binder)
chain: IEVKDVTDTTALITWSPSRGGTSLTGCELTYGIKDVPGDRTTIDLDQVRATYSIGNLKPDTEYEVSLICHTNSGQPSNPAKETFTT
B26: 1H05 (designed binder)
chain: IEVKDVTDTTALITWSPGMFDQVRTGCELTYGIKDVPGDRTTIDLGKYWERYSIGNLKPDTEYEVSLICRNQYGQHQSKETFTT
B27: 2A11 (designed binder)
chain: IEVKDVTDTTALITWSPPFRAGHVTGCELTYGIKDVPGDRTTIDLVTARCQYSIGNLKPDTEYEVSLICTTGNGLRSNPAKETFTT
B28: 1G11 (designed binder)
chain: IEVKDVTDTTALITWSWAQANPGGCELTYGIKDVPGDRTTIDLWHSITFYSIGNLKPDTEYEVSLICKTKVQSSNPAKETFTT
B29: 1C12-Cκ/1C12-IGHG1 (designed binder, not shown: a dimerising Fc or GST)
chain 1: IEVKDVTDTTALITWAKPEKWDGSIYGCELTYGIKDVPGDRTTIDLNSRHTAYSIGNLKPDTEYEVSLICFTPYGAKSNPAKETFTTGGGTPT
chain 2: B29 chain 1

Each binder was assayed against TRAIL-R2/Fc fusion protein (R & D Systems) (human) (UniProt O14763) (assay: TRAIL-R2 phage ELISA).
In the case of B1, the binding is reported as “binds”. B2 was tested, and the binding was “binds”. In the case of B3, the binding is reported as “binds”. For B4, the binding was “binds”. For B5, the binding was “binds”. For B6, the binding was “binds”. With B7 the binding was “binds”. In the case of B8, the binding is reported as “binds”. In the case of B9, the binding is reported as “binds”. B10 was tested, and the binding was “binds”. B11 was tested, and the binding was “binds”. With B12 the binding was “binds”. With B13 the binding was “binds”. For B14, the binding was “binds”. With B15 the binding was “binds”. With B16 the binding was “binds”. In the case of B17, the binding is reported as “binds”. With B18 the binding was “binds”. With B19 the binding was “binds”. For B20, the binding was “binds”. B21 was tested, and the binding was “binds”. B22 was tested, and the binding was “binds”. In the case of B23, the binding is reported as “binds”. B24 was tested, and the binding was “binds”. B25 was tested, and the binding was “binds”. In the case of B26, the binding is reported as “binds”. With B27 the binding was “binds”. With B28 the binding was “binds”.

These binders were tested against TRAIL-R2/Fc fusion protein (R & D Systems) (human) (UniProt O14763) (assay: Attana biosensor, TRAIL-R2 chip, qualitative).
In the case of B12, the binding is reported as “binds”. For B29, the binding was “binds”.

These binders were tested against TRAIL-R2/Fc fusion protein (R & D Systems) (human) (UniProt O14763) (assay: competition phage ELISA on TRAIL-R2 coated plates).
For B1, the binding was “binds”. For B2, the binding was “binds”. With B3 the binding was “binds”. With B4 the binding was “binds”. In the case of B5, the binding is reported as “binds”. With B6 the binding was “binds”. In the case of B7, the binding is reported as “binds”. With B8 the binding was “binds”. With B9 the binding was “binds”.

Each binder was assayed against TRAIL-R2/Fc fusion protein (R & D Systems) (human) (UniProt O14763) (assay: biosensor, TRAIL-R2-Fc fusion protein immobilized on the chip).
With B12 the binding was “binds”. In the case of B29, the binding is reported as “binds”.

The binders below were run against TRAIL-R2/Fc fusion protein (R & D Systems) (human) (UniProt O14763) (assay: Attana biosensor, TRAIL-R2-Fc immobilized, sample injected).
For B12, the binding was “binds”. In the case of B29, the binding is reported as “binds”.

What follows are binders tested against TRAIL-R2/Fc fusion protein (R & D Systems) (human) (UniProt O14763) (assay: BIAcore, TRAIL-R2/Fc captured on anti-human-Fc IgG, 5E5 injected).
With B9 the binding was “binds”.

The binders below were run against TRAIL-R2/Fc fusion protein (R & D Systems) (human) (UniProt O14763) (assay: competition phage ELISA, TRAIL-R2 coated plate, phage displayed Tn3 with or without soluble 7G11 or 5E5).
For B1, the binding was “binds”. For B2, the binding was “binds”. For B3, the binding was “binds”. With B4 the binding was “binds”. B5 was tested, and the binding was “binds”. In the case of B6, the binding is reported as “binds”. With B7 the binding was “binds”. With B8 the binding was “binds”. In the case of B9, the binding is reported as “binds”.

What follows are binders tested against TRAIL-R2/Fc fusion protein (R & D Systems) (human) (UniProt O14763) (assay: competition phage ELISA, TRAIL-R2 coated plate, phage displayed Tn3 with soluble Tn3 competitors, signal relative to no Tn3).
B1 was tested, and the binding was “binds”. B6 was tested, and the binding was “binds”. For B7, the binding was “binds”. In the case of B8, the binding is reported as “binds”. In the case of B9, the binding is reported as “binds”. For B13, the binding was “binds”. For B14, the binding was “binds”. B15 was tested, and the binding was “binds”. With B16 the binding was “binds”. B18 was tested, and the binding was “binds”. B19 was tested, and the binding was “binds”. With B20 the binding was “binds”. B21 was tested, and the binding was “binds”. For B22, the binding was “binds”. B23 was tested, and the binding was “binds”.

Each binder was assayed against TRAIL-R2/Fc fusion protein (R & D Systems) (human) (UniProt O14763) (assay: competition phage ELISA, TRAIL-R2 coated plate, phage displayed Tn3 with soluble Tn3 competitors, signal relative to no Tn3 [D00044 Fig. 15B; D00045 Fig. 15C]).
With B10 the binding was “binds”. For B11, the binding was “binds”. In the case of B12, the binding is reported as “binds”. B17 was tested, and the binding was “binds”.
